No constants are given. Whether binding was seen depends on the method and setting. A result given as binding can be weak or reduced; the word gives no strength.
Legend:
[1] = target: T1, Recombinant Human SRI (sorcin), soluble resistance-related calcium-binding protein (human) (UniProt P30626); assay: intrinsic fluorescence (quenching on mixing); excitation at 280 nm, fluorescence values at 310 nm; spectra of the single proteins and of the premixed pairs, premixed value compared with the sum of the single values; method in the supplement; both purified
T1 sequence: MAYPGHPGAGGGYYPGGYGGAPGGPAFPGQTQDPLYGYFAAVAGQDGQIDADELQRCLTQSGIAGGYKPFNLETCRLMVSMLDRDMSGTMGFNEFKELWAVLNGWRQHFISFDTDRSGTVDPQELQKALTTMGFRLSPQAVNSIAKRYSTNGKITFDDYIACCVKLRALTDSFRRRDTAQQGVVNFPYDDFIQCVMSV

[2] = target: T1, Recombinant Human SRI (sorcin), soluble resistance-related calcium-binding protein (human); assay: far-Western, overlay or dot blot; sorcin (1 µg) run on 10% SDS-PAGE and transferred to PVDF, blocked with 5% low-fat milk in PBS-1% Tween 20, incubated for 3 h at 37 °C with 0.5 µg PMCA in PBS-T, washed, bound PMCA detected with the anti-PMCA antibody 5F10; both purified

purified pig brain plasma membrane Ca2+-ATPase (PMCA)
binding [1]: binds | binding [2]: binds

From article PMC8200006
